Test [1] deals with T1, Flag-tagged MCT4 (monocarboxylate transporter 4), full length (UniProt O15427).
T1 sequence: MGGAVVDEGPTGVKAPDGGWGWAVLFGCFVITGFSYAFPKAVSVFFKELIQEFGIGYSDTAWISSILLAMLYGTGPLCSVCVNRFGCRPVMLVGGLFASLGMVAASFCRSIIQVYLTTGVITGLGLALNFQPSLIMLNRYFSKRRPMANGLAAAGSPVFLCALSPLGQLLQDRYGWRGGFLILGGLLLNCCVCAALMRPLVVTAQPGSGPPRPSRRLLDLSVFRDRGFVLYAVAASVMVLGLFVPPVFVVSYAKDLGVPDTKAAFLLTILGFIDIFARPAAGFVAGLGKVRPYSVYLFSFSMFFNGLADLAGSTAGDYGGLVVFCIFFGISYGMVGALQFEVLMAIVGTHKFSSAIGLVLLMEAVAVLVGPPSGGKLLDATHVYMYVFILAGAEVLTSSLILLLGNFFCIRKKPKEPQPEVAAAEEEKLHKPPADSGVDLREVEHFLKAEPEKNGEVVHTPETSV
Briefly: co-IP; HEK293T transfected with Flag-MCT4 and tagged CD147, with or without SYVN1 overexpression, 48 h; IP with anti-Flag antibody, immunoblot. (In general: A western blot detects proteins with antibodies after separation by electrophoresis.)

By UniProt entry, the sequences of proteins in these tests, tags left out. Where a name states a change or a piece, a line headed by the entry shows the natural chain unless it says otherwise.
UniProt P35613: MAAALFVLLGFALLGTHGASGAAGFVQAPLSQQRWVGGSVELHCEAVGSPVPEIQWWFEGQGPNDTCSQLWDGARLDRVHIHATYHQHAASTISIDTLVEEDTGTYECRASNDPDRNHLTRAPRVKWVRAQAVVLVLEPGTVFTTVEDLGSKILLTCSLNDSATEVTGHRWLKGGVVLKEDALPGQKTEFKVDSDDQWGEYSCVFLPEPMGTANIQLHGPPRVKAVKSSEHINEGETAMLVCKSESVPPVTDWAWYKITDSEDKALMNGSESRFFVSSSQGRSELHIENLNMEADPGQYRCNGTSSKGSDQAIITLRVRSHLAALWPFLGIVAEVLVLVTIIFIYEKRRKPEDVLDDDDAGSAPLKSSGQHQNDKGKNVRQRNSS

For test [2], the target named is T1, Flag-tagged MCT4 (monocarboxylate transporter 4), full length. In words: proximity ligation; PLA in transfected HEK293T cells with anti-Flag and anti-His antibodies, with or without SYVN1 overexpression.
Test [3] deals with T2, MCT4 (monocarboxylate transporter 4), endogenous (human (endogenous in A549 and H1752)) (UniProt O15427).
T2 sequence: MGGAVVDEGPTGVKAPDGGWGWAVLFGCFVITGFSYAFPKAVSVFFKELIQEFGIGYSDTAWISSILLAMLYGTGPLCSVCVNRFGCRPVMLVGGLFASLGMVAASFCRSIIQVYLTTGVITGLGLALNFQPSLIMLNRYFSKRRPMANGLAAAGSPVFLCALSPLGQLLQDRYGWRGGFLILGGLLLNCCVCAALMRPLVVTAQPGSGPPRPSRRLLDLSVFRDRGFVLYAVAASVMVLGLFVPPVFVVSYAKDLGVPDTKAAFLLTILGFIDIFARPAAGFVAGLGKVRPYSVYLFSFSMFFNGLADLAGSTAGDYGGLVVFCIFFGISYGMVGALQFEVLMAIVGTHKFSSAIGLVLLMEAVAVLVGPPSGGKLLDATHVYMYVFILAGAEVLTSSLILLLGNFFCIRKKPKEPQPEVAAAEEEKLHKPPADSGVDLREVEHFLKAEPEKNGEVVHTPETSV
In words: proximity ligation; PLA of MCT4 and CD147 in cells with SYVN1 knockdown; cells and antibodies not named.

The target in another test is tagged CD147 (UniProt P35613). Briefly: pull-down; HEK293T transfected with Flag-MCT4 and tagged CD147, with or without SYVN1 overexpression, 48 h; lysates pulled down by Ni-NTA agarose beads, immunoblot.

No constants are given. Whether binding was seen depends on the method and setting. Binding seen in cells or lysates may run through a third protein. Binding can be weak; no strength is given. For some of these results: Tags and fused reporters may be left off the sequences shown.

On to tagged CD147 (from UniProt P35613-2), for which the binding entry in test [1] and in test [2] was “binds” in each case.
Turning to “CD147 in cells with SYVN1 knockdown (from UniProt P35613-2)”, in test [3], the binding entry is listed as “binds”.

B1: Flag-tagged MCT4 (monocarboxylate transporter 4), full length (protein, UniProt O15427 1-465)
chain: MGGAVVDEGPTGVKAPDGGWGWAVLFGCFVITGFSYAFPKAVSVFFKELIQEFGIGYSDTAWISSILLAMLYGTGPLCSVCVNRFGCRPVMLVGGLFASLGMVAASFCRSIIQVYLTTGVITGLGLALNFQPSLIMLNRYFSKRRPMANGLAAAGSPVFLCALSPLGQLLQDRYGWRGGFLILGGLLLNCCVCAALMRPLVVTAQPGSGPPRPSRRLLDLSVFRDRGFVLYAVAASVMVLGLFVPPVFVVSYAKDLGVPDTKAAFLLTILGFIDIFARPAAGFVAGLGKVRPYSVYLFSFSMFFNGLADLAGSTAGDYGGLVVFCIFFGISYGMVGALQFEVLMAIVGTHKFSSAIGLVLLMEAVAVLVGPPSGGKLLDATHVYMYVFILAGAEVLTSSLILLLGNFFCIRKKPKEPQPEVAAAEEEKLHKPPADSGVDLREVEHFLKAEPEKNGEVVHTPETSV
Turning to B1, in the test with tagged CD147, the binding entry was “binds”.

(Values after publication PMC10564934.)
